Test results: publication PMC9037272
These are yes or no findings as the source states them, for the method shown. Binding calls can cover weak binding; strength is not graded here. For some of these results: Binding seen in cells or lysates may run through a third protein. For some of these results: Where a sequence is shown, tags or fusion partners need not be part of it. Blank lines part the entries; values can stand above or below the molecule they belong to.

Experiments:
[1] = target: T1, EYFP-CCT7 (Drosophila melanogaster) (UniProt Q9VHL2); experiment: FRET or BRET; FRET efficiency by flow cytometry in co-transfected HEK-293T cells 24 h post-transfection; donor mCerulean fusion, acceptor mEYFP fusion; Cer alone as negative control
T1 sequence: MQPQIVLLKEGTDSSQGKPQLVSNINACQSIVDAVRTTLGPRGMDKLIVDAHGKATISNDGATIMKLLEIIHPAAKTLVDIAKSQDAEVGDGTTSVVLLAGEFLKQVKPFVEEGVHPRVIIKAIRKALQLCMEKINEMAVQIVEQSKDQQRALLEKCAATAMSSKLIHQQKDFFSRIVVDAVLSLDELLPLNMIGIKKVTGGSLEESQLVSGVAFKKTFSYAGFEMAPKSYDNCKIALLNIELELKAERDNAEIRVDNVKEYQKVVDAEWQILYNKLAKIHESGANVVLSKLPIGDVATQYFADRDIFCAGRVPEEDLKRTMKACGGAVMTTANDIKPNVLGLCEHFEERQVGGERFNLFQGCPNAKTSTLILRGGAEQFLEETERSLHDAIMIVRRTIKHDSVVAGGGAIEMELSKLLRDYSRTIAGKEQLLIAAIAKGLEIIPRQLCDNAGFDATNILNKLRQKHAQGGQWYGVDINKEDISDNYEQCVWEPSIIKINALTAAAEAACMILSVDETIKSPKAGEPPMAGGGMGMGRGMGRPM

[2] = target: T2, EYFP-CG4364 (Drosophila melanogaster) (UniProt Q9VL96); experiment: as above
T2 sequence: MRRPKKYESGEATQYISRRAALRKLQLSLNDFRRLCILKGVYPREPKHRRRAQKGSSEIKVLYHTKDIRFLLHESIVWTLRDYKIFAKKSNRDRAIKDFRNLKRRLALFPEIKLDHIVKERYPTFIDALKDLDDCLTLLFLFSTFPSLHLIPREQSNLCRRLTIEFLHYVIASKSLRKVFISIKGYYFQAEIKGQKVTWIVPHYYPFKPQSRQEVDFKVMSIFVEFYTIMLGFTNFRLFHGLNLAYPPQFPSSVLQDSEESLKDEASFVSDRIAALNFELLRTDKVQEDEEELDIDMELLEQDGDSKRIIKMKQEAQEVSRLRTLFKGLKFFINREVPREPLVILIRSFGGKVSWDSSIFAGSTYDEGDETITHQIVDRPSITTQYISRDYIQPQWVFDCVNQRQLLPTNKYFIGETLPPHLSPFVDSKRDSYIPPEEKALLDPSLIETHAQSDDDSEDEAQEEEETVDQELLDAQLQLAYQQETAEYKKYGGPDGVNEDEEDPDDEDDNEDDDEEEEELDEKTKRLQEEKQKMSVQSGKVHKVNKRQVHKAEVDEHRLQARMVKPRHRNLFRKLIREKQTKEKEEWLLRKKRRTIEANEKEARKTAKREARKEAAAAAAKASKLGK

[3] = target: HA-EGFP-NtFT4 (tobacco (Nicotiana tabacum)); experiment: co-IP; S2 cells transiently co-transfected with HA-EGFP-NtFT4 and a Myc-tagged partner; magnetic anti-HA beads; eluates blotted with anti-Myc
[4] = target: NtFT2, two-hybrid bait (pGBKT7-NtFT2) (tobacco (Nicotiana tabacum)); experiment: two-hybrid; Matchmaker Gold system; pGBKT7-NtFT2 bait in S. cerevisiae Y2HGold screened against a normalized Drosophila cDNA library; full-length coding sequences in pGADT7 re-analysed in a drop test on selective medium
[5] = target: Drosophila PEBP CG7054, split-mRFP fusion (NmRFP-CG7054) (Drosophila melanogaster); experiment: split reporter; split mRFP fusions (NmRFP, CmRFP; all combinations of C- or N-terminal fusions tested) transiently expressed in infiltrated N. benthamiana leaves; confocal microscopy; interaction confirmed if at least five independent images showed fluorescence
[6] = target: NtFT4, split-mRFP fusion for BiFC (tobacco (Nicotiana tabacum)); experiment: as above
[7] = target: NtFT2, split-mRFP fusion for BiFC (tobacco (Nicotiana tabacum)); experiment: as above

- binding [1]: binds
- binding [2]: binds
Molecule: Cer-NtFT4 (mCerulean fusion of NtFT4) (tobacco (Nicotiana tabacum))

- binding [3]: binds
B1: Myc-CG4364 (protein, UniProt Q9VL96 1-627)
chain: MRRPKKYESGEATQYISRRAALRKLQLSLNDFRRLCILKGVYPREPKHRRRAQKGSSEIKVLYHTKDIRFLLHESIVWTLRDYKIFAKKSNRDRAIKDFRNLKRRLALFPEIKLDHIVKERYPTFIDALKDLDDCLTLLFLFSTFPSLHLIPREQSNLCRRLTIEFLHYVIASKSLRKVFISIKGYYFQAEIKGQKVTWIVPHYYPFKPQSRQEVDFKVMSIFVEFYTIMLGFTNFRLFHGLNLAYPPQFPSSVLQDSEESLKDEASFVSDRIAALNFELLRTDKVQEDEEELDIDMELLEQDGDSKRIIKMKQEAQEVSRLRTLFKGLKFFINREVPREPLVILIRSFGGKVSWDSSIFAGSTYDEGDETITHQIVDRPSITTQYISRDYIQPQWVFDCVNQRQLLPTNKYFIGETLPPHLSPFVDSKRDSYIPPEEKALLDPSLIETHAQSDDDSEDEAQEEEETVDQELLDAQLQLAYQQETAEYKKYGGPDGVNEDEEDPDDEDDNEDDDEEEEELDEKTKRLQEEKQKMSVQSGKVHKVNKRQVHKAEVDEHRLQARMVKPRHRNLFRKLIREKQTKEKEEWLLRKKRRTIEANEKEARKTAKREARKEAAAAAAKASKLGK

- binding [3]: binds
B2: Myc-Hsp26 (protein, UniProt P02517 1-208)
chain: MSLSTLLSLVDELQEPRSPIYELGLGLHPHSRYVLPLGTQQRRSINGCPCASPICPSSPAGQVLALRREMANRNDIHWPATAHVGKDGFQVCMDVAQFKPSELNVKVVDDSILVEGKHEERQDDHGHIMRHFVRRYKVPDGYKAEQVVSQLSSDGVLTVSIPKPQAVEDKSKERIIQIQQVGPAHLNVKANESEVKGKENGAPNGKDK

- binding [4]: binds
B3: 4E-T, two-hybrid prey (pGADT7) (protein, UniProt Q8IH18 1-1010)
chain: MDTSKISARYSKVDLLALRYEGKSRQRPQCSTRLELQTLGFWKINLNTAALTVSSAYSNQNKNRLSPEADNSSLICSNSSSISSRRAMRNRERANNYYQRFVPTDSLLISGEDKDKDALSHGQPYKLNIIDHRSISSSHLMPAFAKRRFVISKGSNSEESNEGINTCASKGKAASSPSRKGSELDTAETCLNFVQPDHDQCMSSSPTFSTSRQERRIGSGRLLPRSDNWDYKNEKTVEASIENEKETSPNGSGSTSSLNQHNQSQHRSRTFSGRLVERVPEVTDRRFQYDSKKSFDRQGINNRRISGKEPFSTQSRSKRGNSYLIHEEPEWFSAGPKSQLETIDLHGFEDLEKNEERSVTEDKNNQIQQLDKNLDAQASKDEASMRNSNDSLNFREVIPSDEKKHTDENVVTSIQNSTDLGHPNKNKPIQMQPSQNPESEFNFDAFLNMHPLDNSVLSNDETGKSDSKGTSRFSRWFRQKEAANNNEFPGFRESHAQEKRGIPSVKDLEAQMIKVDMRTDLINPIAGSLCQTVQMEKPIARDTEAFKKLLQQLGSQARQHHPCNDDCRTINLSNIANHVHLESKLHQKINDGHLQQPELSVNVPTMPTSSHVFLQKRLEIQHLIQRLHCGDVSHDFLEKELDNPSTPAATKDVIATVLNEYSHSKRNPVVTGDPNIFTQQSFLQPQSVHQHYSQELHSQNTANHTINQLISHGNSPTPLAFTPTSVLRKMTADKDTQSPSTYCQNPQYHVHQQNAKQVGTRENVLEPQLTATMAVQPRMILGGGNFAIGQNNQHLSPNMSQSRNQQVLKWTSGNMQMVHGKTFGRPILKGGLNSMPHSNSALPFTAHKIEMQPIHQPHLQQQQHRFKAVQSVESNLNTESVHQNITSPVGWHQLYMQHQQQHHHTRQQLSQRVIYGEMHRQSNPQMSPPVPGFSDSSDSGNVIKANSLTSPSYQRDERISSPTNQLAQWFSPELLAKASAGKLPLLNVNQALSLEEFERSIQHSSGVVHN

- binding [3]: binds
B4: Myc-CCT7 (protein, UniProt Q9VHL2 1-544)
chain: MQPQIVLLKEGTDSSQGKPQLVSNINACQSIVDAVRTTLGPRGMDKLIVDAHGKATISNDGATIMKLLEIIHPAAKTLVDIAKSQDAEVGDGTTSVVLLAGEFLKQVKPFVEEGVHPRVIIKAIRKALQLCMEKINEMAVQIVEQSKDQQRALLEKCAATAMSSKLIHQQKDFFSRIVVDAVLSLDELLPLNMIGIKKVTGGSLEESQLVSGVAFKKTFSYAGFEMAPKSYDNCKIALLNIELELKAERDNAEIRVDNVKEYQKVVDAEWQILYNKLAKIHESGANVVLSKLPIGDVATQYFADRDIFCAGRVPEEDLKRTMKACGGAVMTTANDIKPNVLGLCEHFEERQVGGERFNLFQGCPNAKTSTLILRGGAEQFLEETERSLHDAIMIVRRTIKHDSVVAGGGAIEMELSKLLRDYSRTIAGKEQLLIAAIAKGLEIIPRQLCDNAGFDATNILNKLRQKHAQGGQWYGVDINKEDISDNYEQCVWEPSIIKINALTAAAEAACMILSVDETIKSPKAGEPPMAGGGMGMGRGMGRPM

- binding [5]: binds
- binding [6]: binds
- binding [7]: binds
B5: RHEB, split-mRFP fusion for BiFC (protein, UniProt Q9VND8 1-182)
chain: MPTKERHIAMMGYRSVGKSSLCIQFVEGQFVDSYDPTIENTFTKIERVKSQDYIVKLIDTAGQDEYSIFPVQYSMDYHGYVLVYSITSQKSFEVVKIIYEKLLDVMGKKYVPVVLVGNKIDLHQERTVSTEEGKKLAESWRAAFLETSAKQNESVGDIFHQLLILIENENGNPQEKSGCLVS

- binding [4]: binds
B6: RHEB, two-hybrid prey (pGADT7) (protein, UniProt Q9VND8 1-182)
chain: MPTKERHIAMMGYRSVGKSSLCIQFVEGQFVDSYDPTIENTFTKIERVKSQDYIVKLIDTAGQDEYSIFPVQYSMDYHGYVLVYSITSQKSFEVVKIIYEKLLDVMGKKYVPVVLVGNKIDLHQERTVSTEEGKKLAESWRAAFLETSAKQNESVGDIFHQLLILIENENGNPQEKSGCLVS
